Source: article PMC11739200
These are yes or no findings as the source states them, for the method shown. Binding seen in cells or lysates may run through a third protein. Binding calls can cover weak binding; strength is not graded here. Tags and fused reporters may be left off the sequences shown. Blank lines part the entries; values can stand above or below the molecule they belong to.

Protein sequences, listed by entry. Tags and fused reporters are not part of them. Lines headed by an entry give the natural chain unless they say otherwise; changes in a name come on top. Residues count along the entry.
UniProt P01106: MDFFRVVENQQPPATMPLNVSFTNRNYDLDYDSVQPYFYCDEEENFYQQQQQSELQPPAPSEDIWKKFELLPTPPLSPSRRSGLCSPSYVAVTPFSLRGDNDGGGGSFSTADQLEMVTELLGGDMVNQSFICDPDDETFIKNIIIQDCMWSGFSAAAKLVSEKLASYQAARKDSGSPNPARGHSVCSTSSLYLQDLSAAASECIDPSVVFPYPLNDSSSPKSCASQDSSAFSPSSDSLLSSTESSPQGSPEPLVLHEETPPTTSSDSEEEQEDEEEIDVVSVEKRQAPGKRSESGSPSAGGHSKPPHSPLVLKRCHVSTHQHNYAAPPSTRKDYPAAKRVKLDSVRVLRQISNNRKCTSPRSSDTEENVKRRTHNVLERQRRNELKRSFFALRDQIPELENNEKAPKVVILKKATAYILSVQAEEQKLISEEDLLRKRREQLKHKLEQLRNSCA
UniProt P18888: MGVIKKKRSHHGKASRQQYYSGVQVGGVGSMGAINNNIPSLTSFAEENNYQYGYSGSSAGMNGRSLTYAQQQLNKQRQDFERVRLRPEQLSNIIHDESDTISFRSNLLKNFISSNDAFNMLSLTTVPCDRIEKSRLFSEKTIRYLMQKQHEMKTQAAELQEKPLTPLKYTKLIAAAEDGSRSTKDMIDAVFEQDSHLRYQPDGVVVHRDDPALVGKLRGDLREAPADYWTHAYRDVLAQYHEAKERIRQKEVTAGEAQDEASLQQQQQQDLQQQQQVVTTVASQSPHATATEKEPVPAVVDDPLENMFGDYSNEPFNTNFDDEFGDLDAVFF
UniProt P53115, residues 1-670: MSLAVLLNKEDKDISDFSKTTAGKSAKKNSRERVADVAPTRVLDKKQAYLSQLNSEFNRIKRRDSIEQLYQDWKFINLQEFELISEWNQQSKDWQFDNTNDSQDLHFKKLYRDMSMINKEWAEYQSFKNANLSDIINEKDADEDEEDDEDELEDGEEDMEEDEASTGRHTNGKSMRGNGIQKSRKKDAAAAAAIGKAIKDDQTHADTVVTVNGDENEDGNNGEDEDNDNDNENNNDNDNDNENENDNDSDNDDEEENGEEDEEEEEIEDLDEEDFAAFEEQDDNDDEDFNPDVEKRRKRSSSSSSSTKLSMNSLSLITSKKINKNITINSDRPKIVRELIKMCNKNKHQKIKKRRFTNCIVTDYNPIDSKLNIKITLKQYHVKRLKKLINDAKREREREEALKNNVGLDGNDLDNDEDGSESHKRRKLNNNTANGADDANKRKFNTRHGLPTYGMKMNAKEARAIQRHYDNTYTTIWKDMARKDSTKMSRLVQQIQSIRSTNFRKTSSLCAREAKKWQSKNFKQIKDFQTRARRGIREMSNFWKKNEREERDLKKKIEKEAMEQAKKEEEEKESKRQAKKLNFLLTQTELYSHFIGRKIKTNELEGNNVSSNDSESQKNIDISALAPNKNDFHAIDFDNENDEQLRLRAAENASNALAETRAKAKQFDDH
UniProt P32597, residues 1-300: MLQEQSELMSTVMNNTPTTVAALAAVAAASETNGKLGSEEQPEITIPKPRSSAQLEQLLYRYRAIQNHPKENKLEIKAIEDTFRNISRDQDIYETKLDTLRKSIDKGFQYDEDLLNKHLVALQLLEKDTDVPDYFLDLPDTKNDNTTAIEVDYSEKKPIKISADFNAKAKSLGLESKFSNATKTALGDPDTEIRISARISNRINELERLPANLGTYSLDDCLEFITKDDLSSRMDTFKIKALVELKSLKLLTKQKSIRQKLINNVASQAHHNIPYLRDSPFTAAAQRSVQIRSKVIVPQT
UniProt Q03761: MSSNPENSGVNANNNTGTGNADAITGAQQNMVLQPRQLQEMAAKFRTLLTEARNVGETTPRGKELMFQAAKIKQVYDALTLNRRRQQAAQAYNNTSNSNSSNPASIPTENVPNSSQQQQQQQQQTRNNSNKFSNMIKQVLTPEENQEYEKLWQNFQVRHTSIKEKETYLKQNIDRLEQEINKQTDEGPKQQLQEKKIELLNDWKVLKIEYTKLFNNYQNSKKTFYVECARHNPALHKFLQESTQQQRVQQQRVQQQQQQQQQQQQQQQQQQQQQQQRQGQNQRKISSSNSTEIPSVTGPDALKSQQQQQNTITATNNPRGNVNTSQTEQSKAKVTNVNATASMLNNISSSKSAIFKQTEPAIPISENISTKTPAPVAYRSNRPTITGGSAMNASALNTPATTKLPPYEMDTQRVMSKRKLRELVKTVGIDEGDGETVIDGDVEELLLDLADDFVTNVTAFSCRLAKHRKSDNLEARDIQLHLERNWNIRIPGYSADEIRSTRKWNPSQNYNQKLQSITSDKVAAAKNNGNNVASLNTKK
UniProt P22082, residues 1-307: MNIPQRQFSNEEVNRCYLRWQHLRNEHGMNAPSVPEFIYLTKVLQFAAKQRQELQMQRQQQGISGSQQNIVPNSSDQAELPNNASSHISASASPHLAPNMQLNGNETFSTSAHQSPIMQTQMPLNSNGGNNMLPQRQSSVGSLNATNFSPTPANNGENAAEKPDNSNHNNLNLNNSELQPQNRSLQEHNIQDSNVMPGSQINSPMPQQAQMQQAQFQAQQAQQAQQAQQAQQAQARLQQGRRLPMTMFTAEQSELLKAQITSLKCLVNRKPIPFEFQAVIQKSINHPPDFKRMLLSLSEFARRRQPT
UniProt P18480, residues 1-334: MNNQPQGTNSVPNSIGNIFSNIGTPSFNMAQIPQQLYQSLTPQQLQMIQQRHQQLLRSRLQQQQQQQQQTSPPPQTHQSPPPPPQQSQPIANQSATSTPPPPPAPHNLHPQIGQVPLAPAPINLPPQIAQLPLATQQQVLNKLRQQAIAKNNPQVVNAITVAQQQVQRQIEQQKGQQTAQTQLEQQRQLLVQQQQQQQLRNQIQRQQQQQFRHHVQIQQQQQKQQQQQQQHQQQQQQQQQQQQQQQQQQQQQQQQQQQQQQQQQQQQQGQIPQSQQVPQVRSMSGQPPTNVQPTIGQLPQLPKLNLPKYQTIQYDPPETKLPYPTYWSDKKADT

Key:
[1] = target: GST-Myc TAD1 (aa 1-41) (human) (UniProt P01106); assay: pull-down; GST-TAD fusions immobilised on GSH sepharose, incubated with total protein extracts of yeast transformants containing HA fusions of coactivators; buffer SA-125 (20 mM HEPES pH 7.6, 1 mM DTT, 1 mM EDTA, 125 mM K-acetate, 20% glycerol, 1% NP-40); washed with PBS, eluted with free GSH; blot with anti-HA-peroxidase conjugate; only the target purified
[2] = target: GST-Myc TAD2 (aa 91-140) (human) (UniProt P01106); assay: as above

binding [1]: binds
binding [2]: binds
Molecule: Snf6 (full-length), HA fusion (from UniProt P18888 1-332)

binding [1]: binds
binding [2]: binds
Molecule: Ino80 (aa 1-670), HA fusion (from UniProt P53115 1-670) (domain or fragment)

binding [1]: binds
binding [2]: binds
B1: Taf4, HA fusion (protein, UniProt P50105 1-388)
chain: MANSPKKPSDGTGVSASDTPKYQHTVPETKPAFNLSPGKASELSHSLPSPSQIKSTAHVSSTHNDAAGNTDDSVLPKNVSPTTNLRVESNGDTNNMFSSPAGLALPKKDDKKKNKGTSKADSKDGKASNSSGQNAQQQSDPNKMQDVLFSAGIDVREEEALLNSSINASKSQVQTNNVKIPNHLPFLHPEQVSNYMRKVGKEQNFNLTPTKNPEILDMMSSACENYMRDILTNAIVISRHRRKAVKINSGRRSEVSAALRAIALIQKKEEERRVKKRIALGLEKEDYENKIDSEETLHRASNVTAGLRAGSKKQYGWLTSSVNKPTSLGAKSSGKVASDITARGESGLKFREAREEPGIVMRDLLFALENRRNSVQTIISKGYAKIRD

binding [1]: binds
binding [2]: binds
B2: Swi1 (aa 329-657), HA fusion (domain or fragment, UniProt P09547 329-657)
chain: RAAMFAALQQKQQQRFQALQQQQQQQQNQQQQNQQPQQQQQQQQNPKFLQSQRQQQQRSILQSLNPALQEKISTELNNKQYELFMKSLIENCKKRNMPLQSIPEIGNRKINLFYLYMLVQKFGGADQVTRTQQWSMVAQRLQISDYQQLESIYFRILLPYERHMISQEGIKETQAKRIFLQQFLQELLKKVQQQQQAAALANANNNINSASSAPTPAAPGASVPATAAPGTEAGIVPVSANTPKSLNSNININVNNNNIGQQQVKKPRKQRVKKKTKKELELERKEREDFQKRQQKLLEDQQRQQKLLLETKLRQQYEIELKKLPKVYK

binding [1]: binds
binding [2]: binds
B3: Taf10, HA fusion (protein, UniProt Q12030 1-206)
chain: MDFEEDYDAEFDDNQEGQLETPFPSVAGADDGDNDNDDSVAENMKKKQKREAVVDDGSENAFGIPEFTRKDKTLEEILEMMDSTPPIIPDAVIDYYLTKNGFNVADVRVKRLLALATQKFVSDIAKDAYEYSRIRSSVAVSNANNSQARARQLLQGQQQPGVQQISQQQHQQNEKTTASKVVLTVNDLSSAVAEYGLNIGRPDFYR

binding [1]: binds
binding [2]: binds
B5: Toa1, HA fusion (protein, UniProt P32773 1-286)
chain: MSNAEASRVYEIIVESVVNEVREDFENAGIDEQTLQDLKNIWQKKLTETKVTTFSWDNQFNEGNINGVQNDLNFNLATPGVNSSEFNIKEENTGNEGLILPNINSNNNIPHSGETNINTNTVEATNNSGATLNTNTSGNTNADVTSQPKIEVKPEIELTINNANITTVENIDDESEKKDDEEKEEDVEKTRKEKEQIEQVKLQAKKEKRSALLDTDEVGSELDDSDDDYLISEGEEDGPDENLMLCLYDKVTRTKARWKCSLKDGVVTINRNDYTFQKAQVEAEWV

binding [1]: binds
binding [2]: binds
B6: Taf1 (aa 1-250), HA fusion (domain or fragment, UniProt P46677 1-250)
chain: MVKQQGSGKTNLANEDEAYEAIFGGEFGSLEIGSYIGGDEGANSKDYTEHLPDAVDFEDEDELADDDDDLPEESDANLHPAMMTMGAYDDVNENGAVLGIDSNSLNMQLPEINGDLSQQFILEDDGGTPATSNALFMGMDANEIHLATETGVLDGSGANEIGHSQLSIGGVNGNDMSINGGFIMEPDMSDGKHKKATKLDLINHEKYLLKKYFPDFEKGKILKWNKLIYRRSVPYHWHSEISRVKKPFMP

Further lines, the molecule ahead of its results:

Molecule: Sth1 (aa 1-300), HA fusion (from UniProt P32597 1-300) (domain or fragment)
binding [1]: binds
binding [2]: binds

Molecule: Taf12, HA fusion (from UniProt Q03761 1-539)
binding [1]: binds
binding [2]: binds

Molecule: Swi2 (aa 1-307), HA fusion (from UniProt P22082 1-307) (domain or fragment)
binding [1]: binds
binding [2]: binds

Molecule: Snf5 (aa 1-334), HA fusion (from UniProt P18480 1-334) (domain or fragment)
binding [1]: binds
binding [2]: binds

B4: Taf6, HA fusion (protein, UniProt P53040 1-516)
chain: MSTQQQSYTIWSPQDTVKDVAESLGLENINDDVLKALAMDVEYRILEIIEQAVKFKRHSKRDVLTTDDVSKALRVLNVEPLYGYYDGSEVNKAVSFSKVNTSGGQSVYYLDEEEVDFDRLINEPLPQVPRLPTFTTHWLAVEGVQPAIIQNPNLNDIRVSQPPFIRGAIVTALNDNSLQTPVTSTTASASVTDTGASQHLSNVKPGQNTEVKPLVKHVLSKELQIYFNKVISTLTAKSQADEAAQHMKQAALTSLRTDSGLHQLVPYFIQFIAEQITQNLSDLQLLTTILEMIYSLLSNTSIFLDPYIHSLMPSILTLLLAKKLGGSPKDDSPQEIHEFLERTNALRDFAASLLDYVLKKFPQAYKSLKPRVTRTLLKTFLDINRVFGTYYGCLKGVSVLEGESIRFFLGNLNNWARLVFNESGITLDNIEEHLNDDSNPTRTKFTKEETQILVDTVISALLVLKKDLPDLYEGKGEKVTDEDKEKLLERCGVTIGFHILKRDDAKELISAIFFGE
binding [1]: binds
binding [2]: binds
